PubChem BioAssay AID686938 – Drosophila RNAi Screening Center, 2013
Test: 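Looking for CRAC channel components and the factors controlling them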 (primary screen). Cell system: Drosophila S2R+ cells. Reagent: long dsRNA against Drosophila genes, about 0.25 µg dsRNA per well, roughly 10,000 cells. Time to read-out: 5 days of knock-down before the calcium assay. Conditions: thapsigargin (SERCA pump blocker) to empty calcium stores; entry signal taken 4 min after adding it. Detection: 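Duplicate raw fluo-4 intensities per well from a plate reader, at rest and four minutes after thapsigargin emptied calcium stores; entry-to-rest ratio filled for only some wells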. Direction: calcium entry signal: higher = stronger calcium signal after store depletion; entry to resting ratio: higher = more calcium entry relative to resting level; resting calcium signal: higher = higher resting calcium signal. Rule for the call: 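Called when the plate z-score of the entry-to-rest ratio, mean of duplicates, falls below −3; wells with low overall dye signal (Fmax z below −2) or more than five off-targets excluded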. Calls: active = strongly reduced calcium entry; inactive = no strong reduction.
In all, the deposit lists about 23,000 reagents; shown is an unselected part of those with a known target gene and a result. In the full data, 75 (0.33%) are marked active. 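Raw plate signals without normalisation; calls rest on plate z-scores that were not deposited; ratio present for only 364 wells.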 Reagents against one gene are numbered here. Names joined by + are all predicted targets of the reagent. The record does not give: the dose of the treatment.

gene knocked down | reagent | calcium entry signal, replicate 1 (fluorescence units) | calcium entry signal, replicate 2 (fluorescence units) | entry to resting ratio | resting calcium signal, replicate 1 (fluorescence units) | resting calcium signal, replicate 2 (fluorescence units) | Call
Svil | 1 | 2.50e7 | 4.90e7 | – | 2.23e7 | 2.19e7 | inactive
Svil | 2 | 4.24e7 | 3.94e7 | – | 1.82e7 | 2.02e7 | inactive
Svil | 3 | 4.30e7 | 4.32e7 | – | 2.04e7 | 1.89e7 | inactive
Svil | 4 | 3.72e7 | 3.59e7 | – | 2.25e7 | 1.76e7 | inactive
Svil | 5 | 3.92e7 | 3.75e7 | – | 1.96e7 | 1.78e7 | inactive
CG13339 | 1 | 3.33e7 | 5.16e7 | – | 1.74e7 | 2.08e7 | inactive
CG4324 | 1 | 2.74e7 | 3.68e7 | – | 1.56e7 | 1.74e7 | inactive
Atac3 | 1 | 4.01e7 | 4.62e7 | – | 2.07e7 | 2.05e7 | inactive
Dus2 | 1 | 2.92e7 | 3.14e7 | – | 1.43e7 | 1.49e7 | inactive
AANATL7 | 1 | 3.44e7 | 4.30e7 | 1.9 | 1.82e7 | 1.60e7 | inactive
Zip89B | 1 | 3.48e7 | 4.38e7 | – | 1.78e7 | 7.17e7 | inactive
CG33557 | 1 | 3.82e7 | 5.23e7 | – | 1.92e7 | 2.43e7 | inactive
MED27 | 1 | 3.41e7 | 2.25e7 | – | 1.62e7 | 1.12e7 | inactive
CG5902 | 1 | 2.23e7 | 2.66e7 | – | 1.14e7 | 1.15e7 | inactive
Ykt6 | 1 | 3.30e7 | 3.45e7 | – | 2.00e7 | 1.99e7 | inactive
CG15358 | 1 | 2.83e7 | 3.12e7 | – | 1.36e7 | 1.41e7 | inactive
KCNQ | 1 | 4.93e7 | 4.16e7 | – | 2.19e7 | 1.69e7 | inactive
KCNQ | 2 | 5.00e7 | 3.89e7 | – | 2.22e7 | 1.72e7 | inactive
Wdr81 | 1 | 5.21e7 | – | – | 2.56e7 | – | inactive
CG8860 | 1 | 2.42e7 | 2.89e7 | – | 1.49e7 | 1.63e7 | inactive
Gas8 | 1 | 3.67e7 | 4.45e7 | – | 2.24e7 | 1.83e7 | inactive

The list goes on, starting with the last 7 of the part before.
gene knocked down | reagent | calcium entry signal, replicate 1 (fluorescence units) | calcium entry signal, replicate 2 (fluorescence units) | entry to resting ratio | resting calcium signal, replicate 1 (fluorescence units) | resting calcium signal, replicate 2 (fluorescence units) | Call
Ykt6 | 1 | 3.30e7 | 3.45e7 | – | 2.00e7 | 1.99e7 | inactive
CG15358 | 1 | 2.83e7 | 3.12e7 | – | 1.36e7 | 1.41e7 | inactive
KCNQ | 1 | 4.93e7 | 4.16e7 | – | 2.19e7 | 1.69e7 | inactive
KCNQ | 2 | 5.00e7 | 3.89e7 | – | 2.22e7 | 1.72e7 | inactive
Wdr81 | 1 | 5.21e7 | – | – | 2.56e7 | – | inactive
CG8860 | 1 | 2.42e7 | 2.89e7 | – | 1.49e7 | 1.63e7 | inactive
Gas8 | 1 | 3.67e7 | 4.45e7 | – | 2.24e7 | 1.83e7 | inactive
Ptp52F | 1 | 3.96e7 | 3.85e7 | – | 1.81e7 | 1.90e7 | inactive
CG11889 + CG11891 | 1 | 3.75e7 | 5.45e7 | – | 2.00e7 | 2.19e7 | inactive
CG11889 + CG11891 | 2 | 3.37e7 | 5.34e7 | – | 1.84e7 | 2.11e7 | inactive
CG34330 | 1 | 4.98e7 | 4.82e7 | – | 2.25e7 | 1.95e7 | inactive
smog | 1 | 3.50e7 | 3.52e7 | – | 1.70e7 | 1.61e7 | inactive
smog | 2 | 3.79e7 | 4.10e7 | – | 1.82e7 | 1.83e7 | inactive
smog | 3 | 4.55e7 | 3.40e7 | – | 2.45e7 | 1.63e7 | inactive
Eip93F | 1 | 2.49e7 | 2.51e7 | – | 1.25e7 | 1.20e7 | inactive
Eip93F | 2 | 4.09e7 | 5.55e7 | – | 7.53e7 | 2.63e7 | inactive
Eip93F | 3 | 3.07e7 | 3.29e7 | – | 1.47e7 | 1.58e7 | inactive
Eip93F | 4 | 3.57e7 | 3.54e7 | – | 1.69e7 | 1.45e7 | inactive
CngA | 1 | 4.67e7 | 4.79e7 | – | 2.23e7 | 2.20e7 | inactive
CngA | 2 | 4.49e7 | 5.10e7 | – | 1.85e7 | 2.35e7 | inactive
Ppt2 | 1 | 4.62e7 | – | – | 1.95e7 | – | inactive
Cap-D3 + tomb | 1 | 2.06e7 | 2.11e7 | – | 1.11e7 | 9.57e6 | inactive
CG9338 | 1 | 3.21e7 | – | – | 1.59e7 | – | inactive
LSm7 | 1 | 2.46e7 | 1.55e7 | – | 1.36e7 | 8.69e6 | inactive
PHDP | 1 | 4.60e7 | 4.66e7 | – | 2.19e7 | 2.29e7 | inactive
mtsh | 1 | 3.01e7 | 4.53e7 | – | 1.36e7 | 1.83e7 | inactive
Ugt303B3 | 1 | 3.21e7 | 4.14e7 | – | 1.80e7 | 1.51e7 | inactive
moi + Tgs1 | 1 | 4.11e7 | 4.25e7 | – | 5.47e7 | 2.02e7 | inactive
Osi13 | 1 | 3.86e7 | 2.15e7 | – | 1.72e7 | 1.05e7 | inactive
Ir93a | 1 | 3.88e7 | 3.56e7 | – | 1.66e7 | 1.40e7 | inactive
Ir93a | 2 | 4.01e7 | 5.33e7 | – | 7.07e7 | 2.36e7 | inactive
CG32829 | 1 | 3.16e7 | 3.89e7 | – | 1.77e7 | 1.96e7 | inactive
CG32829 | 2 | 2.91e7 | 3.68e7 | – | 1.45e7 | 1.74e7 | inactive
CG4751 | 1 | 4.06e7 | – | – | 1.83e7 | – | inactive
Fign | 1 | 4.86e7 | – | – | 2.65e7 | – | inactive
Cka | 1 | 3.76e7 | 5.98e7 | – | 1.70e7 | 2.50e7 | inactive
Cka | 2 | 1.78e7 | 2.86e7 | – | 1.07e7 | 1.39e7 | inactive
Np | 1 | 2.76e7 | 3.10e7 | – | 1.30e7 | 1.35e7 | inactive
Np | 2 | 2.64e7 | 3.05e7 | – | 1.22e7 | 1.30e7 | inactive
Np | 3 | 4.42e7 | 3.76e7 | – | 2.06e7 | 1.57e7 | inactive
CG3213 | 1 | 3.49e7 | 1.36e7 | – | 1.66e7 | 7.85e6 | inactive
Vha68-2 | 1 | 3.44e7 | 4.39e7 | – | 2.25e7 | 2.50e7 | active
CG13426 | 1 | 4.84e7 | 3.44e7 | – | 2.05e7 | 1.99e7 | inactive
CG6928 | 1 | 4.34e7 | 4.43e7 | – | 3.16e7 | 1.81e7 | inactive
